Read-outs that look alike come from different tables or passages of the source. The source gives many values for each of these; only a part stands here.
Tested on: female rats (Sprague-Dawley CD species)
Settings: 300 mg/kg oral, per animal
Experimental: This test was carried out in accordance with the OECD Guideline No. 423 “Acute Oral Toxicity-Acute Toxicity Grading Method” (adopted on Dec. 17, 2001). Fasted female rats (Sprague-Dawley CD species) of 3 animals per group were treated with 5-aminolevulinic acid phosphate at a dose of 300 mg per kg body weight. In addition, other fasted female rats of two or more groups were treated at a dose of 2000 mg per kg body weight. They were observed after the administration continuously for 2 weeks.

Measured: Dead animals

NCC(=O)CCC(=O)O.O=P(O)(O)O [5-aminolevulinic acid phosphate, 5-aminolevulinic Acid Phosphate]
0: 0.5 hour after administration | 1 hour after administration | 2 hour after administration | 4 hour after administration | day 1 after administration | day 2 after administration | day 3 after administration | day 4 after administration | day 5 after administration | day 6 after administration | day 7 after administration | day 8 after administration | day 9 after administration | day 10 after administration | day 11 after administration | day 12 after administration | day 13 after administration | day 14 after administration

Reference: patent US8471061B2 (priority 2004, dated 2013)
